No signal at the amounts used counts as a negative. For some assays here: At least one result comes from cells or an extract, where the contact may be indirect. For some assays here: The exact form of at least one protein or probe is not confirmed.

In data set [1] the target is EGFR (epidermal growth factor receptor) (Homo sapiens) (UniProt P00533). As to the kind of experiment: activity in cells. To be noted: 2'-F C/U, 2'-OH purines, protein on the cell surface.
Data set [2] has the same target. Nature of the data set: flow cytometry. The following applies: 2'-F C/U, 2'-OH purines, 3' idT; non-targeting control aptamer, background staining of A431 cells; protein on the cell surface; label: 5' AF488. For orientation: A flow cytometer gives signals particle by particle.

On to “GGAAAAUAGGCGUAGUGAUUAUGAAUCGUGUGCUAAUACACGCC [C36-SA 2:1 (bC36:streptavidin)]”, for which the “functional effect of the aptamer” value in data set [1] (does not inhibit EGF-stimulated EGFR phosphorylation, variant of C36, dose not given here) was “not active”.

For the sequence “GGACGGAUUUAAUCGCCGUAGAAAGCAUGUCAAAGCCGGAACCGUCC [E07]”, in data set [1] (3' idT, inhibits EGF-induced EGFR phosphorylation in A431, restored by 5 uM mA9), the “functional effect of the aptamer” value was “active”. Turning to “GGCGUAGUGAUUAUGAAUCGUGUGCUAAUACACGCC [C36]”, in data set [2], the binding result was “no binding”. For the same sequence, in data set [1] (3' idT, does not inhibit EGF-stimulated EGFR phosphorylation, dose not given here), the “functional effect of the aptamer” value is given as “not active”. “GGGAUUUAGGACGGAUUUAAUCGCCGUAGAAAGCAUGUCAAAGCCGGAACCGUCC [E07-SA 2:1 (bE07:streptavidin)]”: the “functional effect of the aptamer” value in data set [1] (inhibits EGF-induced EGFR phosphorylation in A431, restored by 5 uM mA9, 5 min 37 C, variant of E07) was “active”.
